{"source": "patent US20230190780A1", "about": "“METHODS FOR IMMUNOTHERAPY” (Precision BioSciences, Inc., priority 2020, published 2023)", "key": {"allogeneic CD3+ T cells": {"tested_on": "allogeneic CD3+ T cells", "assay": "Co-culture of TRAC-edited CD19 CAR T cells (CD3- targets) with CD3+ T cell effectors, alloantigen response", "type": "cell-based, human"}, "CAR T cells": {"tested_on": "CAR T cells", "assay": "CAR T cell expansion in response to antigen stimulation (co-culture with K19 or Raji targets)", "type": "cell-based, human", "conditions": "30 ng/ml rapamycin; K19 or Raji co-cultures; E:T 1:1, 1:3, 1:9; day 3 and day 6"}, "[1]": {"tested_on": "K19 targets (K562 engineered to express CD19)", "assay": "Cytolysis of K19 targets by CAR T cells", "type": "cell-based"}, "[2]": {"tested_on": "K19 targets (K562 engineered to express CD19)", "assay": "Growth/survival of K19 target cells plated without CAR T cells", "type": "cell-based", "conditions": "30 ng/ml rapamycin vs. drug-free (FIG. 7A)"}, "Raji": {"tested_on": "Raji", "assay": "Growth/survival of Raji target cells plated without CAR T cells", "type": "cell-based", "conditions": "30 ng/ml rapamycin vs. corresponding drug-free cultures (FIG. 7B)"}, "[3]": {"conditions": "HC9189 CD3+ effectors vs. K799 CAR T targets, E:T 1:1, 30 ng/ml rapamycin (FIG. 2B)"}, "[4]": {"conditions": "HC9189 effectors vs. K6366 CAR T targets, E:T 1:1 and 1:3, 30 ng/ml rapamycin (FIG. 4B, D)"}, "[5]": {"conditions": "OKBI4789 effectors vs. K6366 CAR T targets, E:T 1:1 and 1:3, 30 ng/ml rapamycin (FIG. 3B, D)"}, "[6]": {"conditions": "autologous co-culture K6366 T cells vs. K6366 CAR T, E:T 1:1 and 1:3, 30 ng/ml rapamycin (FIG. 1B, D)"}}, "note": "“Also recorded” adds a separate entry of the source. At least one structure is not confirmed: it was looked up by name or label, or the drawing left a doubt.", "data": [{"smiles": "CO[C@H]1C[C@@H]2CC[C@@H](C)[C@@](O)(O2)C(=O)C(=O)N2CCCC[C@H]2C(=O)O[C@H]([C@H](C)C[C@@H]2CC[C@@H](O)[C@H](OC)C2)CC(=O)[C@H](C)/C=C(\\C)[C@@H](O)[C@@H](OC)C(=O)[C@H](C)C[C@H](C)/C=C/C=C/C=C/1C", "note": "[rapamycin]", "values": [{"measurement": "expansion of allogeneic T cell effectors", "setting": "allogeneic CD3+ T cells; [3]", "value": "inhibited"}, {"measurement": "loss of CAR T targets", "setting": "allogeneic CD3+ T cells; [3]", "value": "inhibited"}, {"measurement": "decrease in CAR T target numbers", "setting": "allogeneic CD3+ T cells; [4]", "value": "inhibit"}, {"measurement": "expansion of HC9189 effectors", "setting": "allogeneic CD3+ T cells; [4]", "value": "inhibit"}, {"measurement": "expansion of effector T cells", "setting": "allogeneic CD3+ T cells; [5]", "value": "did not expand"}, {"measurement": "target cell (CAR T) numbers over time", "setting": "allogeneic CD3+ T cells; [5]", "value": "did not decrease over time"}, {"measurement": "expansion of CD3+ T cell effectors", "setting": "allogeneic CD3+ T cells; [6]", "value": "failed to expand"}, {"measurement": "numbers of CD3- CAR T targets over time", "setting": "allogeneic CD3+ T cells; [6]", "value": "did not decrease over time"}, {"measurement": "alloantigen response (T cell proliferation and decrease in CAR T numbers)", "setting": "allogeneic CD3+ T cells; three different mismatch cultures, rapamycin added to the cocultures", "value": "prevented both features of an alloantigen response"}, {"measurement": "CAR T cell expansion/proliferation relative to input", "setting": "CAR T cells", "value": "not found to be present in greater numbers; also recorded: profoundly inhibited"}, {"measurement": "K19 cytolysis compared to the no drug controls", "setting": "[1]; 30 ng/ml rapamycin, E:T 1:1, 1:3, 1:9, d3 and d6", "value": "No discernable difference"}, {"measurement": "cytolytic functions / target killing of CAR T cells (conclusion)", "setting": "[1]; rapamycin, antigen-bearing target cells (K19, Raji)", "value": "largely unaffected"}, {"measurement": "K19 numbers at d6 of culture", "setting": "[2]", "value": "not with respect to drug treatment"}, {"measurement": "Raji cell numbers at d6 / tolerance", "setting": "Raji", "value": "fewer cells; also recorded: not well tolerated"}]}]}
